Reference: PMC12727705
These are yes or no findings as the source states them, for the method shown. Binding seen in cells or lysates may run through a third protein. Some results given as binding are weak or reduced against the parent protein; the word gives no strength. Sequences can lack the tags named with a protein.

Amino acid sequences for entries named in this document (tags omitted).
UniProt V6CLN5: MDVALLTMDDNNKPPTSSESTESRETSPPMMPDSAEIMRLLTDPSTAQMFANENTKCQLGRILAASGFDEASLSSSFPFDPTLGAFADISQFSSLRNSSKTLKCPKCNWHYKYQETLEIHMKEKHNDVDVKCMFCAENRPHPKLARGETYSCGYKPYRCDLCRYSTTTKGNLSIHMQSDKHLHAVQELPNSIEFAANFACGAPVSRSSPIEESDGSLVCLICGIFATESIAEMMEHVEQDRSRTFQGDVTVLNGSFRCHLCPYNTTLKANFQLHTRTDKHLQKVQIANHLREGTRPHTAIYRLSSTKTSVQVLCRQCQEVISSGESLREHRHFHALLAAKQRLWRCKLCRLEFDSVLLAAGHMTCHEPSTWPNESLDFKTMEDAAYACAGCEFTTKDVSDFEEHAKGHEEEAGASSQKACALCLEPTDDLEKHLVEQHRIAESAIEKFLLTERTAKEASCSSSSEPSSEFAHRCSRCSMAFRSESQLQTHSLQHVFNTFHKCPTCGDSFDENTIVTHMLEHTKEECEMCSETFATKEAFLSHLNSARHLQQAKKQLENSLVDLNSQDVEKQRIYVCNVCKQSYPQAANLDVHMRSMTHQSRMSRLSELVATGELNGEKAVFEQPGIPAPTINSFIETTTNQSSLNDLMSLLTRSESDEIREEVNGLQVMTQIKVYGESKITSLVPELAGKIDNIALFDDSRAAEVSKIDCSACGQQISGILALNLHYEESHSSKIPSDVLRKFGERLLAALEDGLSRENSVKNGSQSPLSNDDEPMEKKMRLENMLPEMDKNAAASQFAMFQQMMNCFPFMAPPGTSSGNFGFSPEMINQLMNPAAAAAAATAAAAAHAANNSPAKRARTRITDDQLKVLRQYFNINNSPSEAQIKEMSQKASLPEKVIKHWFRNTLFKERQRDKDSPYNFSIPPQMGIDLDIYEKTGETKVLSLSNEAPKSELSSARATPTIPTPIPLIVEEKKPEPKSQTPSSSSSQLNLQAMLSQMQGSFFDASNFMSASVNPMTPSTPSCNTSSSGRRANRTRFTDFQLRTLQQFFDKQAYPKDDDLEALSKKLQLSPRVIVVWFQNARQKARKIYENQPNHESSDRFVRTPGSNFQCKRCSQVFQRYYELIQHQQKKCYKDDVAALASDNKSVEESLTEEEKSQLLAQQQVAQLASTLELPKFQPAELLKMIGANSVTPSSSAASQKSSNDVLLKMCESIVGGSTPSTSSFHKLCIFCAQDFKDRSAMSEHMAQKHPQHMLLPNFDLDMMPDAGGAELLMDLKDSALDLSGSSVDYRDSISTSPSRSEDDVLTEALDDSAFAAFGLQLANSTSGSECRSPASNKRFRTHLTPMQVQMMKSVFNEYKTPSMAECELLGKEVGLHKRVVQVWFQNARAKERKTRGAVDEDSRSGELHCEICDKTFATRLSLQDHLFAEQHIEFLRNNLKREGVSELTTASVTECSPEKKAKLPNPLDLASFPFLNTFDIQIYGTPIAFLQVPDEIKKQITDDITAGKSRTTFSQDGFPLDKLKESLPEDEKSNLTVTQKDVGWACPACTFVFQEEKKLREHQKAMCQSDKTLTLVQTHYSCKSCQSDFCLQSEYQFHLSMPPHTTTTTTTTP
UniProt Q9TW45: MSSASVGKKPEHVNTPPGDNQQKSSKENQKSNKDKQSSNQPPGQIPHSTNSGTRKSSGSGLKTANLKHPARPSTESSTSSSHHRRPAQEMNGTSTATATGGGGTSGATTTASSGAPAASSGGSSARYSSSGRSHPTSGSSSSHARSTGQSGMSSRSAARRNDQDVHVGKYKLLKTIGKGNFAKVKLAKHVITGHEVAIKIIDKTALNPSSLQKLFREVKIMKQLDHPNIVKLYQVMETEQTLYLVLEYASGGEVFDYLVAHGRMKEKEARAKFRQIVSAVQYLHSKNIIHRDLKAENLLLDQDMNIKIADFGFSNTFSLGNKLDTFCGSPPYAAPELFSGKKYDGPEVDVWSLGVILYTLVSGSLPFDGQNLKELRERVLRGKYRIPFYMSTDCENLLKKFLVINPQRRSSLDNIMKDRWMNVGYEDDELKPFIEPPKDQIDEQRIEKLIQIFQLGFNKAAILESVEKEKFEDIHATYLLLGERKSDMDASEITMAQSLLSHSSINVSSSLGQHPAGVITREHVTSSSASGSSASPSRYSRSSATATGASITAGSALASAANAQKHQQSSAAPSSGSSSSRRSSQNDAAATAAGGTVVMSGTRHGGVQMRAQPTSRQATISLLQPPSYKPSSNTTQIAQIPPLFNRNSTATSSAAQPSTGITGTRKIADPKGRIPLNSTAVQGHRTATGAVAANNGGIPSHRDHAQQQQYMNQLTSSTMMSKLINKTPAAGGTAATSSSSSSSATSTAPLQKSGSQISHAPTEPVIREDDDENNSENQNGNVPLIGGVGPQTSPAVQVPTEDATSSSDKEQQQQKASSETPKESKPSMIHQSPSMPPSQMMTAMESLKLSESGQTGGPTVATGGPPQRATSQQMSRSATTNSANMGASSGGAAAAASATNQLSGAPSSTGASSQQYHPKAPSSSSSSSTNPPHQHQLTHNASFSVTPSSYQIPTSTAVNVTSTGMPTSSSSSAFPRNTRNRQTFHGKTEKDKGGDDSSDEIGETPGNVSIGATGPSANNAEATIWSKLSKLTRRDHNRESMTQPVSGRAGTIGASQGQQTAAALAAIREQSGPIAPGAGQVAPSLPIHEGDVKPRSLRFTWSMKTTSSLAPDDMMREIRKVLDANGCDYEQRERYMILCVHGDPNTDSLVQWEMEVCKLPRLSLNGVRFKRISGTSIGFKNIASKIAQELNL

Key:
[1] = target: ZFH-2::mSc::AID::3xFLAG (C. elegans) (UniProt V6CLN5); experiment: co-IP; C. elegans lysate (L4 or young adults) of knock-in strains; anti-FLAG M2 magnetic beads with 10 U/ml benzonase, 1 h at 4 °C; 50 mM HEPES pH 7.4, 100 mM KCl, 0.5% NP40, 1 mM DTT; blot for HA; the ZFH-2 experiment in a daf-2(e1370) background
[2] = target: PAR-1::mSc::AID::3xFLAG (C. elegans) (UniProt Q9TW45); experiment: as above

B1: DAF-16::mNG::HA (protein, UniProt O16850 1-541)
chain: MQLEQKSSLHCSKCRNFLQKFSQDMQAWNCRELDSPLPSDITLHNLEPARPDSGMSFSTDFDDDFFNLDLHQQERSASFGGVTQYSQQFLREKCSFSPYFHTSLETVDSGRTSLYGSNEQCGQLGGASSNGSTAMLHTPDGSNSHQTSFPSDFRMSESPDDTVSGKKTTTRRNAWGNMSYAELITTAIMASPEKRLTLAQVYEWMVQNVPYFRDKGDSNSSAGWKNSIRHNLSLHSRFMRIQNEGAGKSSWWVINPDAKPGRNPRRTRERSNTIETTTKAQLEKSRRGAKKRIKERALMGSLHSTLNGNSIAGSIQTISHDLYDDDSMQGAFDNVPSSFRPRTQSNLSIPGSSSRVSPAIGSDIYDDLEFPSWVGESVPAIPSDIVDRTDQMRIDATTHIGGVQIKQESKPIKTEPIAPPPSYHELNSVRGSCAQNPLLRNPIVPSTNFKPMPLPGAYGNYQNGGITPINWLSTSNSSPLPGIQSCGIVAAQHTVASSSALPIDLENLTLPDQPLMDTMDVDALIRHELSQAGGQHIHFDL
- binding [1]: binds
- binding [2]: binds
